Data as given in PubChem BioAssay AID1259254 (NCATS, 2017).

Screen: 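Gene knock-downs that lead to re-replication, shown by excess G2 DNA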 (primary screen)
System: human HCT116 colorectal cancer cells
Knock-down reagent: single siRNA against human genes
Timing: 3 days
Read-out: 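Imaged Hoechst DNA stain sorts each cell into a cycle phase by DNA amount; per plate, G2 fraction set to 0% for non-targeting and 100% for GMNN siRNA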
Direction: G2 robust z-score and G2 cells, % of GMNN control: higher = more G2 cells, more excess DNA replication; raw share of cells in G2: higher = larger share of cells with G2 DNA content
Hit rule: 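An siRNA counts as active if its G2 robust z-score lies at least 5 MADs above the screen median; here such calls match roughly 38% of GMNN control or more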
Here is a random part of about 59,000 reagents tested. In the full data, about 1,550 (2.6%) were called active. 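G2 share is only a proxy for re-replication; each gene was hit by three separate siRNAs, and active genes were retested.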 Raw values are not corrected between plates. The numbers tell different reagents against one gene apart. The record does not give: the amount of reagent.

gene,reagent,G2 robust z-score,"G2 cells, % of GMNN control",raw share of cells in G2 (%),Outcome
GPR37,1,2.33,19.4,12.8,inactive
GPR37,2,-1.07,-4.54,2.93,inactive
GPR37,3,-0.356,0.459,3.41,inactive
CNMD,1,-1.03,-4.26,3.31,inactive
CNMD,2,0.592,7.13,7.08,inactive
CNMD,3,-0.109,2.2,4,inactive
GTF3C2,1,1.2,11.4,10,inactive
GTF3C2,2,-0.835,-2.91,3.13,inactive
GTF3C2,3,-1,-4.09,3.56,inactive
H2AZ1,1,-0.65,-1.61,4.55,inactive
H2AZ1,2,-0.326,0.671,4.33,inactive
H2AZ1,3,-0.423,-0.0115,3.52,inactive
EMILIN1,1,-0.78,-2.52,2.69,inactive
EMILIN1,2,3.14,25.1,17.2,inactive
EMILIN1,3,-0.0692,2.48,4.38,inactive

Next part, starting with the last 2 of the part before.
gene,reagent,G2 robust z-score,"G2 cells, % of GMNN control",raw share of cells in G2 (%),Outcome
EMILIN1,2,3.14,25.1,17.2,inactive
EMILIN1,3,-0.0692,2.48,4.38,inactive
DNAJB3P,1,0.392,5.72,5.89,inactive
DNAJB3P,2,0.401,5.79,5.81,inactive
DNAJB3P,3,1.62,14.3,10.7,inactive
CDCA2,1,-0.0873,2.35,4.45,inactive
CDCA2,2,-0.46,-0.27,2.87,inactive
CDCA2,3,-0.403,0.133,2.8,inactive
SLC4A8,1,-0.636,-1.51,4.14,inactive
SLC4A8,2,0.0748,3.49,6.52,inactive
SLC4A8,3,-0.64,-1.53,2.68,inactive
NXF5,1,0.73,8.1,9.98,inactive
NXF5,2,0.546,6.81,6.88,inactive
NXF5,3,-0.908,-3.42,2.91,inactive
UQCRHL,1,-0.746,-2.28,2.74,inactive
UQCRHL,2,-0.701,-1.97,2.67,inactive
UQCRHL,3,0.0512,3.33,4.25,inactive
